From the supplement of paper PMC11732987, “Enantioselective OTUD7B fragment discovery through chemoproteomics screening and high-throughput optimisation” (Communications Chemistry, 2025)
Some of the results follow. The data scatter; read single values as rough.

Experiments:
[1] = compound: ClCC(=O)N[C@@H]1CCCc2ccccc12; assay: log2 mean competition ratio of IA-DTB cysteine labelling (DMSO/compound) (log2 ratio); higher = stronger cysteine engagement by compound; conditions: treatment time: 4 h, cell line lysate: HEK293T
Method: (§1)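 IA-DTB competitive cysteine chemoproteomics in HEK293T RIPA lysate. Lysates were treated with compound 29 or 30 at 50 or 200 µM for 4 h, then IA-DTB (500 µM, 1 h), trypsin-digested, NeutrAvidin-enriched and analysed by diaPASEF. Competition ratio = intensity DMSO / intensity compound (n=4 treated, n=64 DMSO); binding: mean log2 CR ≥ 1 and p ≤ 0.05 plus QC filters. Target is the cysteine site.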

[2] = compound: ClCC(=O)N[C@H]1CCCc2ccccc12; assay: as above; conditions: treatment time: 4 h, cell line lysate: HEK293T
Method: as §1

Target	log2 mean competition ratio ([1]; 50 µM)	log2 mean competition ratio ([1]; 200 µM)	log2 mean competition ratio ([2]; 50 µM)	log2 mean competition ratio ([2]; 200 µM)
CWF19L2 C299 (UniProt Q2TBE0)	0.138	0.0808	0.0772	0.325
CTBP1 C54	-0.295	-0.0551	-0.281	-0.0576
DCAF7 C256 (UniProt P61962)	-0.155	-0.0318	-0.29	-0.139
CTSB C319 (UniProt P07858)	-0.271	0.0848	-0.243	-0.0496
DCK C9 (UniProt P27707)	0.141	-0.277	-0.241	-0.132
DDB1 C128 (UniProt Q16531)	-0.124	0.196	-0.355	0.0367
DDX50 C396 (UniProt Q9BQ39)	-0.151	-0.224	0.174	-0.0884
CTPS1 C216 (UniProt P17812)	0.186	0.1	0.201	0.325
CSDE1 C464 (UniProt O75534)	-0.327	-0.32	-0.0271	-0.0331
DDX39A C197 (UniProt O00148)	-0.00628	0.257	-0.424	0.146
DARS2 C449 (UniProt Q6PI48)	0.536	-0.274	0.221	-0.153
CRIP2 C126 (UniProt P52943)	-0.202	-0.114	0.275	0.0531
DCAF1 C106 (UniProt Q9Y4B6)	0.596	-0.109	0.13	0.276
CRBN C310 (UniProt Q96SW2)	-0.0834	-0.181	-0.224	0.0935
CRLF3 C95 (UniProt Q8IUI8)	-0.189	-0.153	-0.0311	-0.33
CYP20A1 C409 (UniProt Q6UW02)	0.0223	0.0638	0.0658	0.373
DCAF5 C829 (UniProt Q96JK2)	0.0632	0.106	-0.0338	0.187
CTU2 C47 (UniProt Q2VPK5)	-0.13	0.131	-0.218	0.142
CSNK1E C241 (UniProt P49674)	0.494	0.218	0.492	0.269
DCAF13 C342 (UniProt Q9NV06)	0.0903	-0.0667	-0.222	-0.131
DCTN1 C636 (UniProt Q14203)	-0.221	0.0324	-0.697	-0.113
CUL4A C241 (UniProt Q13619)	-0.301	-0.151	-0.013	0.0392
CXorf38 C300 (UniProt Q8TB03)	-0.155	-0.13	0.414	-0.0647

Target	log2 mean competition ratio ([1]; 50 µM)	log2 mean competition ratio ([1]; 200 µM)	log2 mean competition ratio ([2]; 50 µM)	log2 mean competition ratio ([2]; 200 µM)
DDX20 C98 (UniProt Q9UHI6)	0.545	0.278	0.582	0.39
CYLD C655 (UniProt Q9NQC7)	0.592	0.371	0.253	-0.011
CRYBG1 C541	-0.518	0.154	-0.265	-0.0978
CRBN C287 (UniProt Q96SW2)	0.136	-0.125	-0.244	0.0457
DACH2 C68	-0.432	0.282	-0.0361	0.442
CRYZL1 C177 (UniProt O95825)	0.0661	-0.154	0.161	-0.14
DDX11 C267 (UniProt Q96FC9)	-0.35	0.0947	-0.614	0.000116
DDX3X C128 (UniProt O00571)	0.293	0.154	-0.101	0.0955
CUX1 C1078	-0.171	-0.0954	0.153	-0.184
CUL4B C637	0.275	-0.248	0.187	-0.423
CSNK1G2 C54 (UniProt P78368)	0.0569	0.0385	-0.392	-0.115
CTSB C93 (UniProt P07858)	0.016	0.334	0.271	0.202
CUTC C223 (UniProt Q9NTM9)	-0.00446	-0.0132	0.376	0.117
DARS1 C76	0.65	-0.0247	0.386	-0.0819
DECR2 C13 (UniProt Q9NUI1)	-0.202	0.0969	0.415	0.244
DEK C222 (UniProt P35659)	0.0915	0.0221	-0.312	-0.11
CYFIP2 C423 (UniProt Q96F07)	0.0602	-0.38	-0.172	-0.497
DCAF5 C503 (UniProt Q96JK2)	0.0981	0.437	-0.454	0.126
DECR1 C116	0.254	-0.164	0.434	0.186
CS C101	-0.151	-0.0789	0.293	0.0337
DCUN1D3 C163 (UniProt Q8IWE4)	0.255	-0.344	0.262	-0.337
CTNNB1 C466 (UniProt P35222)	-0.385	0.232	-0.505	0.185

Shown as a markdown table: part of the list above.

| Target | log2 mean competition ratio ([1]; 50 µM) | log2 mean competition ratio ([1]; 200 µM) | log2 mean competition ratio ([2]; 50 µM) | log2 mean competition ratio ([2]; 200 µM) |
| --- | --- | --- | --- | --- |
| DACH2 C68 | -0.432 | 0.282 | -0.0361 | 0.442 |
| DEK C222 (UniProt P35659) | 0.0915 | 0.0221 | -0.312 | -0.11 |
| DCAF5 C503 (UniProt Q96JK2) | 0.0981 | 0.437 | -0.454 | 0.126 |
